Measurements reported in PubChem BioAssay AID652243 (Drosophila RNAi Screening Center, 2013)

Test: 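Fly genes required for human androgen receptor driven transcription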 (primary screen)
System: Drosophila S2R+ cells
Knock-down reagent: long dsRNA against Drosophila genes
Timing: 72 h (48 h, then 24 h hormone)
Challenge: synthetic androgen R1881 at 10 nM for 24 h
Measured: 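Firefly light from an androgen-responsive reporter and Renilla control light per well, raw and unnormalised, for each of two replicates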
Scale: firefly reporter light: higher = more light from androgen-responsive reporter; Renilla control light: higher = more constitutive control signal (cell number, transfection)
Call rule: 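Across duplicate plates, a knock-down whose log firefly/Renilla ratio shifted a set fold down or up from the GFP/LacZ control mean was a hit; the downward cut appears as both 1.5 and 3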
Meaning of the calls: active = hit: reporter lowered or raised; inactive = no hit
The screen tested about 24,000 reagents; this is an unselected part of those that have a named target and a result. Over the whole deposit, 246 (1%) are marked active. 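Plates not normalised; calls are printed but the firefly/Renilla ratio behind them is not deposited; fold cut for lowering reported inconsistently.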 Raw values are not corrected between plates. A plus sign joins genes that one reagent is predicted to hit. Not stated in the record: the amount of reagent.

CG34234 + Dh44-R2 [DRSC07278] | firefly reporter light, replicate 1 = 7.89e5; firefly reporter light, replicate 2 = 7.96e5; Renilla control light, replicate 1 = 1.36e6; Renilla control light, replicate 2 = 1.52e6; outcome = inactive
Osi4 [DRSC12134] | firefly reporter light, replicate 1 = 37257; firefly reporter light, replicate 2 = 76823; Renilla control light, replicate 1 = 1.20e6; Renilla control light, replicate 2 = 1.49e6; outcome = inactive
Bro [DRSC08149] | firefly reporter light, replicate 1 = 35881; firefly reporter light, replicate 2 = 63942; Renilla control light, replicate 1 = 9.64e5; Renilla control light, replicate 2 = 9.66e5; outcome = inactive
CG13544 [DRSC04186] | firefly reporter light, replicate 1 = 2.96e5; firefly reporter light, replicate 2 = 2.25e5; Renilla control light, replicate 1 = 1.94e6; Renilla control light, replicate 2 = 2.05e6; outcome = inactive
CG13544 [DRSC30038] | firefly reporter light, replicate 1 = 4.91e5; firefly reporter light, replicate 2 = 4.24e5; Renilla control light, replicate 1 = 1.16e6; Renilla control light, replicate 2 = 1.04e6; outcome = inactive

Laid out differently: 2 of the entries above.
| target | DRSC id | firefly reporter light, replicate 1 | firefly reporter light, replicate 2 | Renilla control light, replicate 1 | Renilla control light, replicate 2 | outcome |
| --- | --- | --- | --- | --- | --- | --- |
| Osi4 | DRSC12134 | 37257 | 76823 | 1.20e6 | 1.49e6 | inactive |
| Bro | DRSC08149 | 35881 | 63942 | 9.64e5 | 9.66e5 | inactive |

Continued:
CG31819 [DRSC01532] | firefly reporter light, replicate 1 = 1.22e5; firefly reporter light, replicate 2 = 2.46e5; Renilla control light, replicate 1 = 4.41e5; Renilla control light, replicate 2 = 5.94e5; outcome = inactive
CG31819 [DRSC27735] | firefly reporter light, replicate 1 = 2.81e5; firefly reporter light, replicate 2 = 1.99e5; Renilla control light, replicate 1 = 6.32e5; Renilla control light, replicate 2 = 7.06e5; outcome = inactive
Lsd-1 [DRSC14236] | firefly reporter light, replicate 1 = 96113; firefly reporter light, replicate 2 = 1.23e5; Renilla control light, replicate 1 = 5.97e5; Renilla control light, replicate 2 = 7.07e5; outcome = inactive
Sh3beta [DRSC11001] | firefly reporter light, replicate 1 = 8.69e5; firefly reporter light, replicate 2 = 6.09e5; Renilla control light, replicate 1 = 2.77e6; Renilla control light, replicate 2 = 2.41e6; outcome = inactive
Sh3beta [DRSC22053] | firefly reporter light, replicate 1 = 6.32e5; firefly reporter light, replicate 2 = 5.18e5; Renilla control light, replicate 1 = 6.37e5; Renilla control light, replicate 2 = 6.27e5; outcome = inactive
Sh3beta [DRSC27871] | firefly reporter light, replicate 1 = 6.67e5; firefly reporter light, replicate 2 = 5.17e5; Renilla control light, replicate 1 = 2.09e6; Renilla control light, replicate 2 = 1.19e6; outcome = inactive
CG14196 [DRSC19551] | firefly reporter light, replicate 1 = 1.67e5; firefly reporter light, replicate 2 = 99682; Renilla control light, replicate 1 = 6.36e5; Renilla control light, replicate 2 = 4.29e5; outcome = inactive
CG14196 [DRSC26030] | firefly reporter light, replicate 1 = 2.82e5; firefly reporter light, replicate 2 = 2.39e5; Renilla control light, replicate 1 = 7.84e5; Renilla control light, replicate 2 = 7.18e5; outcome = inactive
